Results published in publication PMC8372318, “Automated affinity selection for rapid discovery of peptide binders” (Chemical Science, 2021).
Entries after “also recorded” stand apart in the source; their conditions may differ.

System: anti-hemagglutinin (HA) monoclonal antibody 12ca5
Assay: BLI-assisted capture and release of single control peptide, nLC-MS/MS read-out
Format: binding

YPYDVPDYAK [HA tag]
detection threshold of the indirect capture approach: 1.0 nM | ion enrichment, direct capture: enriched; also recorded: no detectable ion enrichment
